Laboratory results from patent publication US20230382979A1.
No constants are given. Whether binding was seen depends on the method and setting.

Molecular target: human coronavirus HCOV-229E (human coronavirus 229E)
Experiment: dose-response ELISA on coated spike antigen

B1: antibody 1823 (antibody, V domains shown)
VH: EVQLVESGGGLVKPGGSLRLSCVASGFSFGLYTMNWVRQAPGKGLEWVSYISSSTSYKYYADSVKGRVSVSRDNAKNSLYLQLNGLRVEDTAVYYCARDGYCPNGICTYYGMDVWGQGTTVTVSA
VL: EIVMTQSPATLSVSPGERATLSCRASQSVSSNLAWYQQKPGQAPRLLIYGASTRATGIPARFSGSGSGTEFTLTITGLQSEDFAVYYCQQYDKWPPAYSFGQGTKVEIK
Which binding does the source give for B1 here?
The binding was “no binding (tested: 10000 ng/ml)”.
